Values quoted from earlier work as cited in patent publication US7297771B2 (priority 1992, dated 2007).
At least one structure is not confirmed: it was looked up by name or label, or the drawing left a doubt.

Test system: opioid receptors
Details: relative to levorphanol; cited from earlier work

## CN1CC[C@@]23CCCC[C@@H]2[C@@H]1Cc1ccc(O)cc13 [dextrorphan]
  affinity for opioid receptors, times less than that of levorphanol: 1000 times
